Experimental data reported in publication PMC3025952, “Characterization of a core fragment of the rhesus monkey TRIM5α protein” (BMC Biochemistry, 2011).
No constants are given. Whether binding was seen depends on the method and setting. Some entries that bind do so weakly or less than the wild type.

Target: BCCL2 LLER protein (L105E, L106E, E120R, R121E), His6-tagged, from E. coli (rhesus monkey) (UniProt Q0PF16)
Experiment: SEC; Superdex 200 (10/30) column calibrated with globular molecular-weight markers, PBS; for LLER also with 25 μM ZnCl2 and DTT (profile not significantly affected); both purified

B1: BCCL2 LLER protein (L105E, L106E, E120R, R121E), His6-tagged, from E. coli (domain or fragment, rhesus monkey)
chain: GSGLVPRGSASMSDSEVNQEAKPEVKLSPEEGQKVDHCARHGEKLEEFCQEDSKVICWLCRESQEHRGHHTFLMEEVAQEYHVKLQTALEMLRQKQQEAEKLEADIREEKASWKIQIDYDKTNVSADFEQLREILDWEESNELQNLEKEEEDILKSLTKSETEMVQQTQYMRELISELEHRLQGSMMDLLQGVDGIIKRIENMTLKKPKTFHKNQRRVFRAPDLKGMLDMFRELTDA
notes: vector-derived spacer between the His6 tag and E83 of TRIM5αrh; also called LLER variant; source: E. coli BL21(DE3)pLysS, purified (Ni-NTA, anion exchange, SEC); not shown: His6, N-terminal, kept
binding: binds
